The values that follow come from the supplement of paper PMC10735217.

The subject of the assay is HEK293A TEAD-LUC reporter. Nature of the assay: TEAD-luciferase reporter activity (YAP activation), robust Z score vs plate; higher = stronger YAP/TEAD activation. The conditions noted are these: 24 h.

Each structure is given as a SMILES string. Counter-ions that a name gives are not always drawn. The list shows a part of the results. Single values are uncertain here, since repeats match poorly.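 In a drug-repurposing library screen, luminescence reads luciferase driven by eight TEAD-binding elements, stably integrated into human kidney-derived cells. Compounds scoring over five robust Z scores above the plate mean are called hits.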

As for `CC[PH](CC)(CC)[Au][S][C@@H]1O[C@H](COC(C)=O)[C@@H](OC(C)=O)[C@H](OC(C)=O)[C@H]1OC(C)=O` [auranofin], the TEAD-luciferase reporter activity runs as follows: (compound concentration: 200 nM) inactive: 0.14; (compound concentration: 2 uM) inactive: -2.74; (compound concentration: 10 uM) inactive: -0.216.

Regarding `COc1ccc(CCN(C)CCCN2CCc3cc(OC)c(OC)cc3CC2=O)cc1OC` [Zatebradine hydrochloride], the TEAD-luciferase reporter activity reads like this: (compound concentration: 200 nM) inactive: -0.521; (compound concentration: 2 uM) inactive: -0.451; (compound concentration: 10 uM) inactive: 0.398.

Regarding `CCC(CC)[C@H](NC(C)=O)[C@@H]1[C@H](O)[C@@H](C(=O)O)C[C@H]1NC(=N)N` [Peramivir], the TEAD-luciferase reporter activity by setting is: (compound concentration: 200 nM) inactive: -0.789; (compound concentration: 10 uM) inactive: 0.0554.

Take `CC12CCCN1Cc1nnc(=O)c3cc(F)cc4c3c1C2=N4` (stereo unspecified): the TEAD-luciferase reporter activity is, setting by setting: (compound concentration: 200 nM) inactive: -1.4; (compound concentration: 2 uM) inactive: -0.711; (compound concentration: 10 uM) inactive: -0.569.

`CNC(=O)CCN1CCN(CC/C=C2/c3ccccc3Sc3ccc(Cl)cc32)CC1`: the TEAD-luciferase reporter activity is inactive: -0.439 (compound concentration: 200 nM), inactive: 1.28 (compound concentration: 2 uM) and inactive: 0.606 (compound concentration: 10 uM).

For the compound `CNS(=O)(=O)Cc1ccc2[nH]cc(CCCN3CCN(c4ncncc4OC)CC3)c2c1`, the TEAD-luciferase reporter activity was inactive: -0.818 (compound concentration: 200 nM), inactive: 0.986 (compound concentration: 2 uM) and inactive: -1.36 (compound concentration: 10 uM).

On to `CCc1nc2c(C)cc(C)nc2n1Cc1ccc(-c2ccccc2S(=O)(=O)NC(=O)c2ccccc2)cc1`, for which the TEAD-luciferase reporter activity is inactive: -0.738 (compound concentration: 200 nM), inactive: -0.613 (compound concentration: 2 uM) and inactive: 3.5 (compound concentration: 10 uM).

Regarding `COC(=O)C1CCN(c2nc(N)c3cc(OC)c(OC)cc3n2)CC1`, the TEAD-luciferase reporter activity is inactive: -0.824 (compound concentration: 200 nM), inactive: 0.655 (compound concentration: 2 uM) and inactive: -2.02 (compound concentration: 10 uM).

`CC(C)Nc1nc2cc(Cl)c(Cl)cc2n1[C@H]1O[C@@H](CO)[C@H](O)[C@@H]1O` [maribavir]: the TEAD-luciferase reporter activity (compound concentration: 200 nM) was inactive: -2.23, the TEAD-luciferase reporter activity (compound concentration: 2 uM) is inactive: 0.175 and the TEAD-luciferase reporter activity (compound concentration: 10 uM) is inactive: -0.723.

As for `CCCCCCCCOc1ccccc1CC(=O)NC(Cc1ccccc1)c1ccccc1` (stereo unspecified), the TEAD-luciferase reporter activity reads like this: (compound concentration: 200 nM) inactive: -0.971; (compound concentration: 2 uM) inactive: -0.514; (compound concentration: 10 uM) inactive: 2.54.

In the case of `Cc1ccc(C(C)C)cc2c(C)ccc1-2`, the TEAD-luciferase reporter activity is inactive: -1.15 (compound concentration: 200 nM), inactive: -0.783 (compound concentration: 2 uM) and inactive: 0.603 (compound concentration: 10 uM).

Turning to `COc1ccc(Nc2c(C(=O)O)cnc3ccc(C(=O)O)cc23)cc1`, the TEAD-luciferase reporter activity is, setting by setting: (compound concentration: 200 nM) inactive: -0.223; (compound concentration: 2 uM) inactive: 0.385; (compound concentration: 10 uM) inactive: 1.19.

With `O=c1oc2cc(O)ccc2c2ccc(O)cc12` [Urolithin A], the TEAD-luciferase reporter activity reads like this: (compound concentration: 200 nM) inactive: 0.123; (compound concentration: 2 uM) inactive: 0.124; (compound concentration: 10 uM) inactive: 0.88.

With `COCCOCCOCCOc1cccc(C2=N[C@@](C)(C(=O)O)CS2)c1O`, the TEAD-luciferase reporter activity (compound concentration: 200 nM) was inactive: 1.11, the TEAD-luciferase reporter activity (compound concentration: 2 uM) is inactive: -1.18 and the TEAD-luciferase reporter activity (compound concentration: 10 uM) was inactive: 1.99.

Take `O=C(O)c1ccc(CCN2CCCC2)nc1`: the TEAD-luciferase reporter activity is inactive: -0.914 (compound concentration: 200 nM), inactive: -0.455 (compound concentration: 2 uM) and inactive: -0.105 (compound concentration: 10 uM).

Take `CC(C)n1nccc1-c1ncccc1COc1cccc(O)c1C=O`: the TEAD-luciferase reporter activity was inactive: 1.17 (compound concentration: 200 nM), inactive: 1.02 (compound concentration: 2 uM) and inactive: -1.09 (compound concentration: 10 uM).

Turning to `CC(C)NC(=O)NS(=O)(=O)c1cnc(N)nc1N[C@H]1C[C@H]2CC[C@@H]1C2`, the TEAD-luciferase reporter activity is, setting by setting: (compound concentration: 200 nM) inactive: -0.407; (compound concentration: 2 uM) inactive: -0.238; (compound concentration: 10 uM) inactive: 2.1.

In the case of `Cc1c(Nc2ncccc2C(=O)O)cccc1C(F)(F)F` [flunixin], the TEAD-luciferase reporter activity was inactive: -0.99 (compound concentration: 200 nM), inactive: 3.15 (compound concentration: 2 uM) and inactive: 3.86 (compound concentration: 10 uM).

Take `CCOP(=O)(CCCCCCOc1ccc(F)c(OC)c1)OCC`: the TEAD-luciferase reporter activity is inactive: 0.101 (compound concentration: 200 nM), inactive: 1.12 (compound concentration: 2 uM) and inactive: 0.516 (compound concentration: 10 uM).

Consider `N/C(=N\O)c1ccc(N2CCC(Oc3ccccc3)CC2)nn1` [SCD1 inhibitors], for which the TEAD-luciferase reporter activity was inactive: -0.356 (compound concentration: 200 nM), inactive: -0.0472 (compound concentration: 2 uM) and inactive: 0.453 (compound concentration: 10 uM).

Take `CCNCC[C@H](O)CNCCCCNC[C@@H](O)CCNCC`: the TEAD-luciferase reporter activity (compound concentration: 200 nM) was inactive: -2.03, the TEAD-luciferase reporter activity (compound concentration: 2 uM) is inactive: -1.51 and the TEAD-luciferase reporter activity (compound concentration: 10 uM) is inactive: -0.486.

For `NCC(=O)N[C@@H](Cc1ccc(O)cc1)C(=O)NCC(=O)O`, the TEAD-luciferase reporter activity is inactive: -0.473 (compound concentration: 200 nM), inactive: -0.505 (compound concentration: 2 uM) and inactive: -1.15 (compound concentration: 10 uM).

With `C=CC(=O)Nc1cc2c(Nc3ccc(F)c(Cl)c3)ncnc2cc1OCCCN1CCOCC1` [Canertinib dihydrochloride], the TEAD-luciferase reporter activity was active: 5.5 (compound concentration: 200 nM), inactive: -1.5 (compound concentration: 2 uM) and inactive: 3.81 (compound concentration: 10 uM).

As to `CCN1Cc2nc(N3CCNCC3)ncc2C1=O`, the TEAD-luciferase reporter activity runs as follows: (compound concentration: 200 nM) inactive: 0.114; (compound concentration: 2 uM) inactive: -1.26; (compound concentration: 10 uM) inactive: 3.56.
